From ChEMBL document CHEMBL3988442, “University of Dundee, Small-Polar-MMV Screening Library” (2021).

Results are given as percent effect. How 0% and 100% were set is not recorded. Most values in the screen are low, and negative values occur. This is an unselected part of the compounds tested. Two or more numbers in one place are separate tests of the same structure; such repeats can differ widely.

Mtb cholesterol medium: 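Whole-cell growth test on Mycobacterium tuberculosis, read after 4 days in a medium based on cholesterol and the lipid DPPC; the read-out is not stated. Concentration: 50 µM. The record gives no direction; compounds that gave an IC50 in retests scored well above the rest, so higher reads as more growth inhibition. Size under these conditions: about 69,000 compounds, about 370 of them at 50% or above in at least one test.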
Mtb glucose medium: 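Growth of Mycobacterium tuberculosis over 3 days (7H9 medium with glucose and tyloxapol); the read-out is not stated. Concentration: 50 µM. The record gives no direction; compounds that gave an IC50 in retests scored well above the rest, so higher reads as more growth inhibition. Size under these conditions: about 69,000 compounds, about 760 of them at 50% or above in at least one test.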

- O=C(N1CCCCC1)N1CCCC(c2ncncc2-c2ccncc2)C1 (stereo not drawn) : Mtb cholesterol medium: -9.107%; Mtb glucose medium: 20.23%
- COc1c(CNC2CCc3c(Cl)cccc32)c(C)nn1C.Cl (stereo not drawn) : Mtb cholesterol medium: -4.014%; Mtb glucose medium: 14.85%
- Cc1ccc(CN2CCC3(CC2)OC(C(=O)N(C)C)c2ccccc23)o1.O=C(O)C(F)(F)F (stereo not drawn) : Mtb cholesterol medium: -1.034%; Mtb glucose medium: -3.974%
- CCCN(Cc1nccn1C)C(=O)C(CC)Nc1cccc(OC)c1 (stereo not drawn) : Mtb cholesterol medium: -3.819%; Mtb glucose medium: -20.44%
- Cc1ncc(CNCC2CCCN2c2cccnn2)s1 (stereo not drawn) : Mtb cholesterol medium: -26.77%; Mtb glucose medium: -21.03%
- O=S(=O)(Cc1ccccc1Cl)CC(O)CO (stereo not drawn) : Mtb cholesterol medium: 11.47%; Mtb glucose medium: -1.987% and -10.61%
- O=C(Nc1cccc(N2CCN(CC3CC3)CC2)c1)C1CCCO1 (stereo not drawn) : Mtb cholesterol medium: -19.71%; Mtb glucose medium: -9.385%
- [H][C@]12CN(Cc3cc(C)no3)CCN1C[C@H](c1ccccc1)[C@H]2CO : Mtb cholesterol medium: 11.14%; Mtb glucose medium: 22.11%
- CNC(=O)c1cn[nH]c1C1(C)CCCN(Cc2nccn2C(C)C)C1 (stereo not drawn) : Mtb cholesterol medium: 20.32%; Mtb glucose medium: 11.06%
- COc1ccccc1C(O)CNC(=O)Nc1cccnc1OC (stereo not drawn) : Mtb cholesterol medium: -5.721%; Mtb glucose medium: 5.269%
- N#Cc1cc2c(=O)n(CC(O)Cc3ccccc3)ccc2[nH]c1=O (stereo not drawn) : Mtb cholesterol medium: -3.31%; Mtb glucose medium: -9.928%
- Brc1ccc(C2(NCc3noc(C4CC4)n3)CCC2)cc1 : Mtb cholesterol medium: 27%; Mtb glucose medium: 45.68%
- CN(C(=O)c1ccccc1Cl)C1CCN(c2ccccn2)CC1 : Mtb cholesterol medium: -6.289%; Mtb glucose medium: 13.78%
- Cc1ccc(NC2CCN(C(=O)c3cc(C)no3)CC2)nn1 : Mtb cholesterol medium: 6.896%; Mtb glucose medium: 21.65%
- CCC(Cn1ccnc1)n1cnc2scc(C)c2c1=O (stereo not drawn) : Mtb cholesterol medium: -37.87%; Mtb glucose medium: -31.02%
- CC(C)c1ncc(CN2C[C@@H](CN3CCC(CO)CC3)[C@@H](CO)C2)cn1 : Mtb cholesterol medium: -1.819%; Mtb glucose medium: 0.8265%
- CC(C)S(=O)(=O)N1CCC(c2[nH]ncc2S(C)(=O)=O)C1 (stereo not drawn) : Mtb cholesterol medium: -13.78%; Mtb glucose medium: 9.059%
- CNc1cccc(C2CCCN(C(C)=O)C2)n1 (stereo not drawn) : Mtb cholesterol medium: -22.74%; Mtb glucose medium: -30.1%
- O=C(CC1NC(N2CCc3ccccc32)=NC1=O)Nc1ccc(Cl)cc1 (stereo not drawn) : Mtb cholesterol medium: -12.25%; Mtb glucose medium: -21.2% and 0.6584%
- O=C(CN1CCCCC1Cn1cncn1)NC1CCN(C2CC2)CC1 (stereo not drawn) : Mtb cholesterol medium: 12.43%; Mtb glucose medium: 16.78%
- CNS(=O)(=O)c1ccc(CNC(=O)NCC2CCOC2)cc1 (stereo not drawn) : Mtb cholesterol medium: -38.35%; Mtb glucose medium: 4.766%
- c1cc(CN2CCOC[C@H]2c2nc(-c3ccncc3)c[nH]2)ccn1 : Mtb cholesterol medium: 5.899%; Mtb glucose medium: 2.838% and 3.59%
- CCS(=O)(=O)N1CCc2nc(N3CCCC3)nc(N(C)C)c2CC1 : Mtb cholesterol medium: 3.382%; Mtb glucose medium: -3.491% and -40.02%
- O=C(O)C(F)(F)F.O=C(O)C(F)(F)F.[H][C@@]12CN(Cc3cccc(F)c3)C[C@]1([H])CN(Cc1c(C)noc1C)C2 : Mtb cholesterol medium: 14%; Mtb glucose medium: 10.82%
- Cc1cc(C)c(CNC(=O)NCc2ccc(F)cc2)c(=O)[nH]1 : Mtb cholesterol medium: 11.56%; Mtb glucose medium: -1.132% and -51.06%
- O=C(NCc1cccc(F)c1)c1cccc(C(=O)N2CCCC2)n1 : Mtb cholesterol medium: 6.831% and 3.727%; Mtb glucose medium: 47.63%
- O=C(CC1CCN(CCc2ccccc2)CC1)N1CCCOCC1 : Mtb cholesterol medium: 7.646%; Mtb glucose medium: 6.491%
- O=C(O)C(F)(F)F.[H][C@@]12CCCO[C@]1([H])[C@H](N(C)Cc1ccco1)CN(C(=O)N(C)C)C2 : Mtb cholesterol medium: -12.6%; Mtb glucose medium: 3.233%
- CCc1ccsc1C(=O)N1CCCN(Cc2cnn(CC)c2)CC1 : Mtb cholesterol medium: 5.675%; Mtb glucose medium: -5.104%
- O=C(O)C(F)(F)F.O=C(O)C(F)(F)F.O=C(O)C(F)(F)F.[H][C@@]12OCCN(Cc3ccccn3)[C@@]1([H])CC[C@H]2OCCN1CCCC1 : Mtb cholesterol medium: 11.53%; Mtb glucose medium: -1.156%
- Cc1cnn(-c2ccc(S(=O)(=O)N(C)CC(C)(CO)CO)cc2F)c1 : Mtb cholesterol medium: -16.84%; Mtb glucose medium: -0.8325%

The last 2 entries again:

- O=C(O)C(F)(F)F.O=C(O)C(F)(F)F.O=C(O)C(F)(F)F.[H][C@@]12OCCN(Cc3ccccn3)[C@@]1([H])CC[C@H]2OCCN1CCCC1 : Mtb cholesterol medium: 11.53%; Mtb glucose medium: -1.156%
- Cc1cnn(-c2ccc(S(=O)(=O)N(C)CC(C)(CO)CO)cc2F)c1 : Mtb cholesterol medium: -16.84%; Mtb glucose medium: -0.8325%